1 substance from paper PMC3196520 can be followed below.

Protein sequences, listed by entry. Tags and fused reporters are not part of them.
UniProt O54941: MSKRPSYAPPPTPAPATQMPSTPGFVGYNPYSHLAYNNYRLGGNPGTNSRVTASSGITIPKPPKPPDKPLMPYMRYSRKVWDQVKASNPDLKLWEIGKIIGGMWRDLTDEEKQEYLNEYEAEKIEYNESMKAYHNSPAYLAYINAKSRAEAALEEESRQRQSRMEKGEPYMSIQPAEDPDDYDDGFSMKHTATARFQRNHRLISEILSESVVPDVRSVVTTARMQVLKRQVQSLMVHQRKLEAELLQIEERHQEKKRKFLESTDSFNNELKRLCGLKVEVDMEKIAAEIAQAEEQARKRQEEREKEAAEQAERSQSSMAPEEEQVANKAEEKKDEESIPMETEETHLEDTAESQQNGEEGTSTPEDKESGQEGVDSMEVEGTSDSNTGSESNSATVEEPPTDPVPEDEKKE
UniProt G5E870: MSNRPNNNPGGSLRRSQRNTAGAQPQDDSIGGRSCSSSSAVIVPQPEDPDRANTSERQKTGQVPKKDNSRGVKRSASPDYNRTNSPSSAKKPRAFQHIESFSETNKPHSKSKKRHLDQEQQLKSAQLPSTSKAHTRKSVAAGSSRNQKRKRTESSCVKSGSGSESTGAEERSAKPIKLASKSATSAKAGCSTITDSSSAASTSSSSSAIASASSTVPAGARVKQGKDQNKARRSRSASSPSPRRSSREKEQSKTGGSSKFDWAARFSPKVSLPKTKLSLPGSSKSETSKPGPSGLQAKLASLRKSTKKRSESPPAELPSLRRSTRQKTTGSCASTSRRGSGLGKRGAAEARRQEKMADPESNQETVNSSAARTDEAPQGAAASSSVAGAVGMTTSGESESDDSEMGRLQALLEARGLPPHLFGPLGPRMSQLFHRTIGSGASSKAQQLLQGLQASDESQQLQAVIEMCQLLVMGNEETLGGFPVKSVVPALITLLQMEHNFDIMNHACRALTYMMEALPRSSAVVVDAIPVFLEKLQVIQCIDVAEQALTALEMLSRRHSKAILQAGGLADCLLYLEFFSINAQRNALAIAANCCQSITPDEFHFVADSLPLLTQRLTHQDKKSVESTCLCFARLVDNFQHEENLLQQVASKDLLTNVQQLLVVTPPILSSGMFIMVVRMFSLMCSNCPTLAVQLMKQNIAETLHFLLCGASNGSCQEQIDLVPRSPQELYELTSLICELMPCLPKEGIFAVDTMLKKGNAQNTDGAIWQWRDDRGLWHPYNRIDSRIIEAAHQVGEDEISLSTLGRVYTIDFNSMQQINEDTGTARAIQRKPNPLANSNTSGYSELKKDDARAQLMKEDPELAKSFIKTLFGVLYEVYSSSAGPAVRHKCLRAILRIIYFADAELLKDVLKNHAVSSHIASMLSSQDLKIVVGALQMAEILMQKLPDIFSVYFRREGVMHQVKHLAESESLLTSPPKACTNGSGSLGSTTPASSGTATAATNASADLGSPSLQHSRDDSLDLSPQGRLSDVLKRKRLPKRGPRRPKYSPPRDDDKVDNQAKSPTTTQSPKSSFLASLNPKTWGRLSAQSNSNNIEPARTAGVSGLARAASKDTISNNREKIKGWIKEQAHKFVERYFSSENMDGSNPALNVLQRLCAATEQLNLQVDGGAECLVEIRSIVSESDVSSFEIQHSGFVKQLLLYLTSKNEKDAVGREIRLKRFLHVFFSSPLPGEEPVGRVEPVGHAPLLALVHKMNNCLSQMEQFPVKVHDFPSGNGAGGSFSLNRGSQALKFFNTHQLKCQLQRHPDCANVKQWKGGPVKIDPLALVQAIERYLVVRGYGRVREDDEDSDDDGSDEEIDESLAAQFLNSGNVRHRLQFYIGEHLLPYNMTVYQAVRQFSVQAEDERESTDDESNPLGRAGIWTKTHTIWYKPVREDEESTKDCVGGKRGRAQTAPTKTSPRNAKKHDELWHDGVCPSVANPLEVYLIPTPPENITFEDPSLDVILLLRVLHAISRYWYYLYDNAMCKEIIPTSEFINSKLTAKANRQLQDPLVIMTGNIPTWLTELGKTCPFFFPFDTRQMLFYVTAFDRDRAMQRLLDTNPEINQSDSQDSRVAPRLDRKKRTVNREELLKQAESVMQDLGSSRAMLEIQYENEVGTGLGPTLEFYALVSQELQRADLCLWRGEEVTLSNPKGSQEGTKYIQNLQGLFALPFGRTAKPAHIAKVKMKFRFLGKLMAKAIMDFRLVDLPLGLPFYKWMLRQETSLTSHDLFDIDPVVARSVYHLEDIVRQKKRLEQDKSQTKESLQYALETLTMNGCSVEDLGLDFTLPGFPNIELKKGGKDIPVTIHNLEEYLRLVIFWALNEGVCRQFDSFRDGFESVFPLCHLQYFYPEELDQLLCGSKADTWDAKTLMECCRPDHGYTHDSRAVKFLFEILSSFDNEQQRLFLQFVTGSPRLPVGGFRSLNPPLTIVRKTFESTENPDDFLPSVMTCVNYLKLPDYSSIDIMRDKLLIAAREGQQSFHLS

These are yes or no findings as the source states them, for the method shown. Binding seen in cells or lysates may run through a third protein. Some results given as binding are weak or reduced against the parent protein; the word gives no strength.

This experiment has as its target myc-tagged BAF57 (UniProt O54941). Kind of experiment: co-IP; wild type or mutant Trip12 ectopically expressed with or without myc-tagged BAF57; Myc-BAF57 immunoprecipitated with anti-myc antibody, immunoblotted with anti-Trip12 or anti-myc antibody. On the technique in general: A western blot detects proteins with antibodies after separation by electrophoresis.

Regarding “Trip12, wild type, ectopically expressed (from UniProt G5E870 1-2025) (enzyme)”, the binding result is recorded as “binds”.
